Measured values published in paper PMC5871717, “Transposase-DNA Complex Structures Reveal Mechanisms for Conjugative Transposition of Antibiotic Resistance” (Cell, 2018).

Target: T1, Int82N (Enterococcus faecalis) (UniProt Q7BP35)
T1 sequence (looked up): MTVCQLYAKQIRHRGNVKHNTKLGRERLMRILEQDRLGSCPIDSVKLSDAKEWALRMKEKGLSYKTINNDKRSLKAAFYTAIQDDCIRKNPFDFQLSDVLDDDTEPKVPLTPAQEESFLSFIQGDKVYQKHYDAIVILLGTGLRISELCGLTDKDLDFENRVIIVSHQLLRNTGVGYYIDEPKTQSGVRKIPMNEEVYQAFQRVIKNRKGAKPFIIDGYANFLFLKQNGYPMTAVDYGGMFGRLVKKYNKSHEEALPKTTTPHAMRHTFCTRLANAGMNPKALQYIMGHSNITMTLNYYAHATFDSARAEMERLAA
Assay: EMSA
Conditions: […] (50 mM HEPES pH 7.5, 250 mM NaCl, 5 mM DTT, 10% glycerol), residues 82-397, protein details: 6xHis-SUMO removed by SenP2, extra N-terminal S81, label: 2AP

| Sequence | binding result (2-aminopurine (written A) at first IR base after crossover on each strand, recombinant protein) | binding result (2-aminopurine (written A) at position 24 of top and 25 of bottom strand, recombinant …) |
| --- | --- | --- |
| TGCGATAACCTAAAATTTTATAGCAAAATTATATGGGATTTTAG / CTAAAATCCCATATAATTTTGCTATAAAATTTTAGGTTATCGCT [CI5-IR] | binds |  |
| TGCGATAACCTAAAATTTTTTAGAAAAATTATATGGGATTTTAG / CTAAAATCCCATATAATTTTCCTAAAAAATTTTAGGTTATCGCT [CI5-F] |  | binds |

Tags and fusion partners may be left off the protein sequences shown.
